Measured values taken from publication PMC11024185.
Results are given in words; binding and its absence hold for the method and conditions named. In cells and extracts the contact can be indirect. These calls come from enrichment with a bait or labelling near it, and not all partners need be listed. For some of these results: Sequences can lack the tags named with a protein.

Assays:
[1] = biological target: T1, Dbp10 (2xStrep-bdNEDD8-DBP10) (S. cerevisiae) (UniProt Q12389); test: affinity purification with mass spectrometry; split-tag purification of pre-60S particles from SPB4-AID yeast without and with auxin (0.5 mM IAA, 45 min): IgG Sepharose on Noc2-2xProteinA, 3C cleavage, then Strep-Tactin on 2xStrep-Dbp10; buffers with 50 µM ADP-BeF3; Coomassie-stained 4-20% SDS-PAGE, bands named by molecular weight, ambiguous bands by mass spectrometry; auxin gave ~10-fold enrichment of the particle
T1 sequence: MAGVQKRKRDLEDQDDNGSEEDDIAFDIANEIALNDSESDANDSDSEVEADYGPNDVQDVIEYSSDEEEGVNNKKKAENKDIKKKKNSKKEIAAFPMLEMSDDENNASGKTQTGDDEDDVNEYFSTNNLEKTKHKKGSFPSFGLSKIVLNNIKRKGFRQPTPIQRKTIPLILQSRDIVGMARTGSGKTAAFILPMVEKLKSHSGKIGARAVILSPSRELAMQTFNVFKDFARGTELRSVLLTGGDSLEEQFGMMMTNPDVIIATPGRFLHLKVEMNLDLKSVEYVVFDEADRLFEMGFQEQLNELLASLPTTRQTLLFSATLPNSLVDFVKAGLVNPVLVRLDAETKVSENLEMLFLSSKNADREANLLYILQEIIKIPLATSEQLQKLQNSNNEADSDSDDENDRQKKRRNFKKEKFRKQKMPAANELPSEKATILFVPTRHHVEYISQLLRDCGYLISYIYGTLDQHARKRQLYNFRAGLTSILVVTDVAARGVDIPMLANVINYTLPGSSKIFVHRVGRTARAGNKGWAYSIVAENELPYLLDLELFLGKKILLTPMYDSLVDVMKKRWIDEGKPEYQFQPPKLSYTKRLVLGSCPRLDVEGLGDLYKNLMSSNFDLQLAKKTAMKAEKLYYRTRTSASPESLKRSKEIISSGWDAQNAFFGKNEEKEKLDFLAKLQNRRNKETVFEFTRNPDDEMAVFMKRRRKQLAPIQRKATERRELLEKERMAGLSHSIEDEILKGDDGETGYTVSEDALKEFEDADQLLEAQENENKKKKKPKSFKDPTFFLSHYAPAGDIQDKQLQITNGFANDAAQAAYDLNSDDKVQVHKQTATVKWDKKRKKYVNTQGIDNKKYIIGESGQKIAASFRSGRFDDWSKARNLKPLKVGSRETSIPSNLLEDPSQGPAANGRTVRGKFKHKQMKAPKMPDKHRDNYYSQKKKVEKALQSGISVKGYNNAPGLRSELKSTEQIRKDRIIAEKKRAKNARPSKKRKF

[2] = biological target: T2, Noc2-3xFLAG-3C-2xProteinA (S. cerevisiae) (UniProt P39744); test: as above
T2 sequence: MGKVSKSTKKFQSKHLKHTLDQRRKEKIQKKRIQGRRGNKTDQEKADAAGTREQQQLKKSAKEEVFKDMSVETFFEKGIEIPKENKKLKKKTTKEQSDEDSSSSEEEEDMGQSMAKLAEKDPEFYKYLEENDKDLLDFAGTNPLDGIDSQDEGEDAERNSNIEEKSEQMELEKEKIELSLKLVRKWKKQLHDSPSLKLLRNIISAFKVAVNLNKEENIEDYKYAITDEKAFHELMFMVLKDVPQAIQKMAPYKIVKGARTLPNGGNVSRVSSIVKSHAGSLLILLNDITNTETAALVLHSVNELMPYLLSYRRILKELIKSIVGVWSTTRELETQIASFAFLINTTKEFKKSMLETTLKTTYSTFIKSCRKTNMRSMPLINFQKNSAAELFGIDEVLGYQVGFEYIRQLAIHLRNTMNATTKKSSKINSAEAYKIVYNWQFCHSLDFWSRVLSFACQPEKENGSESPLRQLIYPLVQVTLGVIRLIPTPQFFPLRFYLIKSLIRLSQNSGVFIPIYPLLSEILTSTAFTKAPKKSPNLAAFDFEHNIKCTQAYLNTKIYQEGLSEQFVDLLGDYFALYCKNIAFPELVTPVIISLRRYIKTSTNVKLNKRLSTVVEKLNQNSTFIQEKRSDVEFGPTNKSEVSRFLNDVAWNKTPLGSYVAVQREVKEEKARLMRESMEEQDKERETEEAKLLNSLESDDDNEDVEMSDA

[3] = biological target: T1, Dbp10 (2xStrep-bdNEDD8-DBP10) (S. cerevisiae); test: affinity purification with mass spectrometry; split-tag purification of pre-60S particles from steady state DBP10 yeast: IgG Sepharose on Ssf1-2xProteinA, 3C cleavage, then Strep-Tactin on 2xStrep-Dbp10, desthiobiotin elution; buffers with 50 µM ADP-BeF3; Coomassie-stained 4-20% SDS-PAGE, bands named by molecular weight, ambiguous bands by mass spectrometry
[4] = biological target: T3, Ssf1-3xFLAG-3C-2xProteinA (S. cerevisiae) (UniProt P38789); test: as above
T3 sequence: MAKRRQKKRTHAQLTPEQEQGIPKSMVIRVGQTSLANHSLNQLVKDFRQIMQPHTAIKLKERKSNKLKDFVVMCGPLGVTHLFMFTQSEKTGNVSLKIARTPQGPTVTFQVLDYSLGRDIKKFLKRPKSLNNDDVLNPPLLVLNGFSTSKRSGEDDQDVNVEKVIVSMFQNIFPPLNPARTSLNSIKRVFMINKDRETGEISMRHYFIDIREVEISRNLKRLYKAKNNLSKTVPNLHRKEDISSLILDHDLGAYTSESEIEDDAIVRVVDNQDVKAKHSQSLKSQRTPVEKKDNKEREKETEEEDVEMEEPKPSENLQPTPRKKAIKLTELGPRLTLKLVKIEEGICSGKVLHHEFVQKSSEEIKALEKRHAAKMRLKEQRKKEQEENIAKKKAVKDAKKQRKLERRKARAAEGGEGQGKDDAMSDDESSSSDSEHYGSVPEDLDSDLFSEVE

Measured: binding

B1: Cic1 (protein, UniProt P38779 1-376)
chain: MAKKSNSKKSTPVSTPSKEKKKVIEKKSSTAIPRERVIKAVNELIKFTSKPQDENNEEGNNGKKNLLEDDEEELKKDLQLIVVNNKSFTGTSKSFKLKLLNVKHSFYKPWKEASATAVKDFKVLLILKDSDIKKVSEDDLFDQLDSEGIKVDEIICGKDLKTVYKAYEARNAFISQFSLILADDSIVTSLPKLMGGKAYNKVETTPISIRTHANKEFSLTTLTNNIKKVYMNQLPVKLPRGTTLNVHLGNLEWLRPEEFVDNVELISEQLIKAYQIRSIFIKTNRSPVLPLYYNQDVLDELEAKKDKIEETHEDDMVTIDGVQVHLSTFNKGLMEIANPSELGSIFSKQINNAKKRSSSELEKESSESEAVKKAKS
binds: all assays above
